This is one part of the list.

Protein sequences, listed by entry. Tags and fused reporters are not part of them.
UniProt Q0JBA9, entry or part of it: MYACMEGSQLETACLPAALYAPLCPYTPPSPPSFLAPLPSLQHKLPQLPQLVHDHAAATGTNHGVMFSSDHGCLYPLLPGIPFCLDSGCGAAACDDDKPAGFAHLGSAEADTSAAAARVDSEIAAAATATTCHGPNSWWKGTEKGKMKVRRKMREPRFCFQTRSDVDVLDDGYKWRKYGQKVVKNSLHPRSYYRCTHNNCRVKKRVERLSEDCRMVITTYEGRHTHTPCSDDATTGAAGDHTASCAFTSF

For the assay, the target named is OsWRKY34 (Oryza sativa, UniProt Q0JBA9 1-250). The experiment in a line: protein-binding microarray (RPBM); PBS, 2% BSA, 51.3 ng/ul salmon testes DNA, 50 uM zinc acetate, 200 nM TF, 25 C, 1 h; high values mean tight binding. The following applies: protein: recombinant; tags: N-terminal polyhistidine and DsRed monomer fusion (pET32a); label: CyDye5-dUTP incorporated in the synthesized complementary strand; 3' TTTTT single-stranded linker to array surface; dsDNA, one strand shown. In outline:
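Polyhistidine-tagged DsRed fusions of transcription factors, joined at the N-terminus, were expressed in E. coli BL21-CodonPlus and isolated on Ni–NTA. They were incubated at 200 nM for 1 h at 25 °C on a custom Agilent array, double-stranded and BSA-blocked, in PBS with 2% BSA, salmon testes DNA and 50 µM zinc acetate. The binding signal is per-feature fluorescence intensity (arbitrary units) read on an Axon 4000B scanner after washing.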
For “CAGTCTGCTCTTTCCTGTCTTCTCCTCCACCTTTTTATACCGGAGTCACCTAGTGCAG”, the binding signal was 9510 fluorescence intensity (a.u.).
As to “CCGTATTTTAATGCACGACACCTTTGACTTTTTGATAAACCGGAGTCACCTAGTGCAG”, the binding signal was 9990 fluorescence intensity (a.u.).
In the case of “CCTGTTGATCCCGTGTCTGTCTCTAGTGTTCTTGGCGCCTCGGAGTCACCTAGTGCAG”, the binding signal was 16300 fluorescence intensity (a.u.).
The same measure for “GACTATGCTAACTTCCATTCGAGATCTATAATTTCTTAAACGGAGTCACCTAGTGCAG”: 8020 fluorescence intensity (a.u.).
“TGCCATTGCCATTGGACACATCATCGCCATTTCTGACACTCGGAGTCACCTAGTGCAG”: the binding signal was 8150 fluorescence intensity (a.u.).
The same measure for “GGTACTCTCTTCGTTTTTAGTATACGACGCCGTTGACTTTCGGAGTCACCTAGTGCAG”: 16000 fluorescence intensity (a.u.); for “TGTATGTATAATGGTGTTAGTGTCGCCTTTGGGTGTGTTTCGGAGTCACCTAGTGCAG”: 9740 fluorescence intensity (a.u.).
Take “CTCCTTCATCTCTAATCACGCACATGCAACTCACTAGCTCCGGAGTCACCTAGTGCAG”: the binding signal is 8600 fluorescence intensity (a.u.).
Turning to “AGCTCCAGCTTCAGCTTTTGGCTTCTCCTATAGCCTCTTTCGGAGTCACCTAGTGCAG”, the binding signal is 8470 fluorescence intensity (a.u.).
For “TTCCTATCATCTAAGGTAACCCTTGGTCATCACCGATTCACGGAGTCACCTAGTGCAG”, the binding signal was 8110 fluorescence intensity (a.u.).
Take “TACCTTGTTCGTTTCTTTGCAATATTCATTCCGACAAATGCGGAGTCACCTAGTGCAG”: the binding signal was 9390 fluorescence intensity (a.u.).
As for “CGTCACTACCACCATTCTCTTCTTCGTCTACTTCCAGCTACGGAGTCACCTAGTGCAG”, the binding signal was 9300 fluorescence intensity (a.u.).
Turning to “CTCTATCTGGTGATTTCTTGTGTTGGTGGGGTCCCGTACGCGGAGTCACCTAGTGCAG”, the binding signal is 13100 fluorescence intensity (a.u.).
Regarding “CGTCGCCGGCGTCTCCCACCTGCCCGGCTGCCCTGCCCCACGGAGTCACCTAGTGCAG”, the binding signal was 8310 fluorescence intensity (a.u.).
With “AGGAAGGAGTGGGTGGGTAGGTGAGTGGAGTTGGTCGATGCGGAGTCACCTAGTGCAG”, the binding signal was 8360 fluorescence intensity (a.u.).
For the sequence “ACTCTTTTATCTCGCTCGTGCGCGTTAGTTTCGCTTCGCTCGGAGTCACCTAGTGCAG”, the binding signal is 10300 fluorescence intensity (a.u.).
As to “TCTCCATTTGGCGAGGAGAGCAGAGCAGGGGAGGGGAGGGCGGAGTCACCTAGTGCAG”, the binding signal is 11500 fluorescence intensity (a.u.).
Take “CGTTTTTTTCGTGGCGAGCGAGCTTGCGTCACCGGCCTTCCGGAGTCACCTAGTGCAG”: the binding signal was 13100 fluorescence intensity (a.u.).
As for “AGGGGAGCCGTCAACCTTCATCGCCACTGCAGATCTTCTCCGGAGTCACCTAGTGCAG”, the binding signal is 8060 fluorescence intensity (a.u.).
On to “AAGTAATCATCGCTCGTGCACTTGGATTTTTCAGTTTCCACGGAGTCACCTAGTGCAG”, for which the binding signal was 8660 fluorescence intensity (a.u.).
Take “CATTTGTGTTGATGTGTGTTGTGCTGGCTTATTTCATGTACGGAGTCACCTAGTGCAG”: the binding signal was 14600 fluorescence intensity (a.u.).
In the case of “TTCCCGTCCATCAGATCGGTACCGCCCCATCTTCCTCCTTCGGAGTCACCTAGTGCAG”, the binding signal was 8070 fluorescence intensity (a.u.).
As to “ACCACACTACTAATTTGTACTTACTTCGTCTCAAAAATATCGGAGTCACCTAGTGCAG”, the binding signal was 8490 fluorescence intensity (a.u.).
As to “CTGCCTGCCCGAGTTGCCTTGCCCGCTTGTACTTTGCCTGCGGAGTCACCTAGTGCAG”, the binding signal is 9380 fluorescence intensity (a.u.).
With “TCGTTTTTTTTCCCTTAAAGTGCTTATATGCTAATAGGGTCGGAGTCACCTAGTGCAG”, the binding signal was 9240 fluorescence intensity (a.u.).
As for “ATGGTGTGCATGGTTTGCTTCTGATTGTTTGTTTAGGATTCGGAGTCACCTAGTGCAG”, the binding signal is 8870 fluorescence intensity (a.u.).
For “ACCACCACCGGTTTGCCCATCCCCGGACCCACCCGCCAGTCGGAGTCACCTAGTGCAG”, the binding signal was 8630 fluorescence intensity (a.u.).
“CAACACCACAAGAACACCTGATTGCTTGTTTGAACTATCTCGGAGTCACCTAGTGCAG”: the binding signal was 9030 fluorescence intensity (a.u.).
Consider “TGTCACGAAAACCATTCTTTCAACCGCAGTTTAATCTTAACGGAGTCACCTAGTGCAG”, for which the binding signal is 8280 fluorescence intensity (a.u.).
As to “ATCATCCCATCCCATCTCATCCGTCCATCCGCCAACTCATCGGAGTCACCTAGTGCAG”, the binding signal is 12300 fluorescence intensity (a.u.).
The same measure for “CACACTATTAATCATTTTGATTTTGGTATACTGCACTTTTCGGAGTCACCTAGTGCAG”: 8080 fluorescence intensity (a.u.).
“CCGTGCGCAATGTTTGACCGTTCGTCTTATTTGAAAAAATCGGAGTCACCTAGTGCAG”: the binding signal is 8400 fluorescence intensity (a.u.).
As to “GCTGGTGGTGGTGGTAGAGGAGGAGTTGACGGCGAGGGGACGGAGTCACCTAGTGCAG”, the binding signal is 10300 fluorescence intensity (a.u.).
“TCTCATCTGTCTATCAGTTTCGTCCAGGCACAACATAAGTCGGAGTCACCTAGTGCAG”: the binding signal was 9010 fluorescence intensity (a.u.).
For “GCCGCCGCCGCTTCGATTGCTCACTCGCGCCCCTCGCCGCCGGAGTCACCTAGTGCAG”, the binding signal was 11200 fluorescence intensity (a.u.).
In the case of “GAACTTTTCCTGGATGGTGATCCTTCTTTTGGCCTTCTTTCGGAGTCACCTAGTGCAG”, the binding signal is 10500 fluorescence intensity (a.u.).
The value for “TAATTCTCGGATCCCACGCACAAGCAGTTGACCAACCGAGCGGAGTCACCTAGTGCAG” was 9030 fluorescence intensity (a.u.); that for “TATATATATATATATATATATATATAGCTGGGCGATGAACCGGAGTCACCTAGTGCAG” was 16300 fluorescence intensity (a.u.).
Turning to “CTCTGCCAACGACTTCATCTTCATTATCTGTCGTTGGCTGCGGAGTCACCTAGTGCAG”, the binding signal is 8480 fluorescence intensity (a.u.).
The value for “GGTTATATTTTCGTGTTGCCATGCTTTCAACACACTTTGGCGGAGTCACCTAGTGCAG” was 9890 fluorescence intensity (a.u.); that for “TCGCCCTCTTCTTCTTCGTCGGCGCCGCCTTCGACAAGCTCGGAGTCACCTAGTGCAG” was 8240 fluorescence intensity (a.u.); that for “GCAGATGTTTTGTGAGTTGTGAGTTTCATTCCTGTCCAAACGGAGTCACCTAGTGCAG” was 11100 fluorescence intensity (a.u.).

The values above are taken from publication PMC7819943, “Rice protein-binding microarrays: a tool to detect cis-acting elements near promoter regions in rice”.
